Measured values as given in article PMC11077089, “Molecular basis of A. thaliana KEOPS complex in biosynthesizing tRNA t^6A” (Nucleic Acids Research, 2024).
Results are given in words; binding and its absence hold for the method and conditions named. A result given as binding can be weak or reduced; the word gives no strength. For some assays here: In cells and extracts the contact can be indirect.

Amino acid sequences for entries named in this document (tags omitted). A change or cut given only in a name is not applied to a line headed by its entry.
UniProt O49653: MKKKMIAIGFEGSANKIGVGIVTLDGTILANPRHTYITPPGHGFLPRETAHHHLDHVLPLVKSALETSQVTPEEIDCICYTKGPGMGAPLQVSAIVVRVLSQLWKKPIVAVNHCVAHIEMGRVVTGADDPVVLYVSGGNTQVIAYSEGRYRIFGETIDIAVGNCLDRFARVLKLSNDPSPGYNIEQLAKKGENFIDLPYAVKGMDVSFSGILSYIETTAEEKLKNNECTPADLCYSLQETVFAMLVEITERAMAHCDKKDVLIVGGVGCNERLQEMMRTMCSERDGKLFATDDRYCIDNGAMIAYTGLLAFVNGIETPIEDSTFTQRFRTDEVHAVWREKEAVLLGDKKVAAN

Tests used:
[1] = target: T1, Arabidopsis thaliana PCC1 (Arabidopsis thaliana) (UniProt Q8GWD7); experiment: co-purification (Ni-NTA affinity, then SEC); subunits co-expressed in E. coli from one plasmid with 6His on one subunit; Ni-NTA then SEC, SDS–PAGE; lysis buffer 20 mM Tris–HCl pH 7.5, 300 mM NaCl, 5 mM β-mercaptoethanol
T1 sequence: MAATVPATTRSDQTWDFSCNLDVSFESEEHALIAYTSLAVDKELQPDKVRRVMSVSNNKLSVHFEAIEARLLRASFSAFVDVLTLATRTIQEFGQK

[2] = target: T1, Arabidopsis thaliana PCC1 (Arabidopsis thaliana); experiment: cryo-EM structure; AtKEOPS mixed with tRNA^ArgCCU at 1:2; tRNA not seen; six subunits resolved (KAE1, PCC1, PCC1, KAE1, BUD32, CGI121); 3.2 Å after local refinement; both purified

Question: With “Arabidopsis thaliana KAE1 (from UniProt O49653)” as the substance, how does the binding [1] read?
Answer: binds

Question: What about the binding [2] of the same substance?
Answer: binds
